Results reported in article PMC5862840.

Target: uncarboxylated Ucma/GRP (ucUcma)
Test: ELISA; solid phase binding assay: ELISA plates coated with cUcma, ucUcma, BMP-2 and MGP (positive control), BMP-2 in the liquid phase, detected with an anti-BMP-2/4 antibody; both purified

binding: binds weakly
B1: recombinant BMP-2 (ligand, UniProt P12643 283-396)
chain: QAKHKQRKRLKSSCKRHPLYVDFSDVGWNDWIVAPPGYHAFYCHGECPFPLADHLNSTNHAIVQTLVNSVNSKIPKACCVPTELSAISMLYLDENEKVVLKNYQDMVVEGCGCR

These are yes or no findings as the source states them, for the method shown. Binding can be weak; no strength is given.
